Data on four molecules can be found in article doi:10.1101/2020.04.01.020479.

Common to all, as to test: proximity labelling
Test [1] addresses T1, MTRF1L-BirA*-FLAG (human) (UniProt Q9UGC7).
T1 sequence: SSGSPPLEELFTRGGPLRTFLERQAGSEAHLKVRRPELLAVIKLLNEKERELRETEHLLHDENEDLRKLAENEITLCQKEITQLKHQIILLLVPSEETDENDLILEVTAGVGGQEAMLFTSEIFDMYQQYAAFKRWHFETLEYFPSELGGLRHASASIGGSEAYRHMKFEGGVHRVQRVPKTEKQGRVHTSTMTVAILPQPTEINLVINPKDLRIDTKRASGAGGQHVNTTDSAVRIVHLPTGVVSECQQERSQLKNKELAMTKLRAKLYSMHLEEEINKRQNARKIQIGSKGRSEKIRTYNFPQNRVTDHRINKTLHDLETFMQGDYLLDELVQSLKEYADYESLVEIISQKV

Test [2] concerns the target T2, ACAD9-BirA*-FLAG (human) (UniProt Q9H845).
T2 sequence: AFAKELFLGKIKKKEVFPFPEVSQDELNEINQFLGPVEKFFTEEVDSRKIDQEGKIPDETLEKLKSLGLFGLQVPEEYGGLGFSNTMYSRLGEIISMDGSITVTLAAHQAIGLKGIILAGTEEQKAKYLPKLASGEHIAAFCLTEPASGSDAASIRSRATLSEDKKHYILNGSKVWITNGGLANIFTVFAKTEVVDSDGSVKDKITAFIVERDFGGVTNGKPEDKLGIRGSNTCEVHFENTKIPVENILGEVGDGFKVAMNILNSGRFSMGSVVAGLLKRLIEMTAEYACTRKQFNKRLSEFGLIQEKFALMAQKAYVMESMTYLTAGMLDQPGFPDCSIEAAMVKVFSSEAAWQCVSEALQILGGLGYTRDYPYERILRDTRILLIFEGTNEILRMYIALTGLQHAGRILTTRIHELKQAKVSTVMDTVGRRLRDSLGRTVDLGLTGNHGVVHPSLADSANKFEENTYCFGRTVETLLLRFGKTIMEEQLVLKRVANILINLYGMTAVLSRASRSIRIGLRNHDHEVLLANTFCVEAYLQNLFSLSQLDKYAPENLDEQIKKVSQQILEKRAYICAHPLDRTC

The target in test [3] is T3, ACAD9-BirA*-FLAG (human), Q9H845.
T3 chain: T2 sequence
The note with it: remark: other sources report otherwise.

For test [4], the target named is T4, MTIF2-BirA*-FLAG (human) (UniProt P46199).
T4 sequence: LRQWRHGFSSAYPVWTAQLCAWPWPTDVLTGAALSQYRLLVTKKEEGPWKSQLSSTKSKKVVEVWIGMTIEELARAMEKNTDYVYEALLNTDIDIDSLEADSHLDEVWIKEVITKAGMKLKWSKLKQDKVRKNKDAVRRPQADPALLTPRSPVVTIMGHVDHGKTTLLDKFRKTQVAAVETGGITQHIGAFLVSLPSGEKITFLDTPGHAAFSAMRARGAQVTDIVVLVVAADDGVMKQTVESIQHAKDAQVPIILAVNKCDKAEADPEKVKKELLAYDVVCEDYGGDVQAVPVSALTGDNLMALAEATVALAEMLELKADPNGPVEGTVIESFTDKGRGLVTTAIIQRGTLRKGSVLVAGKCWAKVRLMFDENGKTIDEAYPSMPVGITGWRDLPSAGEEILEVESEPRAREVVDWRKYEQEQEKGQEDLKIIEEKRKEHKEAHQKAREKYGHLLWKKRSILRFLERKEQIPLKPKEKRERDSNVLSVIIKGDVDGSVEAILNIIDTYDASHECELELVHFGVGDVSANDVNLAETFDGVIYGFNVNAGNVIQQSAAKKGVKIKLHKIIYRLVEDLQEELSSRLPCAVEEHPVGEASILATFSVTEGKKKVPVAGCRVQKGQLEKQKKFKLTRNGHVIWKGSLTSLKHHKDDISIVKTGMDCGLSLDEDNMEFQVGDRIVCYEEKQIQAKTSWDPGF

For test [5], the target named is T5, PMPCA-BirA*-FLAG (human) (UniProt Q10713).
T5 sequence: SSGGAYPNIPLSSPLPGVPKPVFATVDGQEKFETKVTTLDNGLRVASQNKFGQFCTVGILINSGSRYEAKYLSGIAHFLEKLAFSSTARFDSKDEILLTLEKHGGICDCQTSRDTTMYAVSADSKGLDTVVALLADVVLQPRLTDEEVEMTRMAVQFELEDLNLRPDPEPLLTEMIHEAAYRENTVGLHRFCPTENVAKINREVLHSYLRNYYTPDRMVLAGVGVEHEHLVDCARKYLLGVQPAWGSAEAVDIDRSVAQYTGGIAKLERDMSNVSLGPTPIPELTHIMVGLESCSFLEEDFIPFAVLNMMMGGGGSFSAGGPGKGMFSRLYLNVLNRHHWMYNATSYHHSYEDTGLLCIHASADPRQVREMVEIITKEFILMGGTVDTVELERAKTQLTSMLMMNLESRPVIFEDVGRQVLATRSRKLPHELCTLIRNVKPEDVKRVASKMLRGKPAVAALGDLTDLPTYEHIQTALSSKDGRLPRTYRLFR

No constants are given. Whether binding was seen depends on the method and setting. In cells and extracts the contact can be indirect. A yes stands for co-enrichment or nearness to the bait. Other partners may have been found. Where a sequence is shown, tags or fusion partners need not be part of it.

B1: ECSIT (protein, UniProt Q9BQ95 49-431)
chain: SSEQSLVPSPPEPRQRPTKALVPFEDLFGQAPGGERDKASFLQTVQKFAEHSVRKRGHIDFIYLALRKMREYGVERDLAVYNQLLNIFPKEVFRPRNIIQRIFVHYPRQQECGIAVLEQMENHGVMPNKETEFLLIQIFGRKSYPMLKLVRLKLWFPRFMNVNPFPVPRDLPQDPVELAMFGLRHMEPDLSARVTIYQVPLPKDSTGAADPPQPHIVGIQSPDQQAALARHNPARPVFVEGPFSLWLRNKCVYYHILRADLLPPEEREVEETPEEWNLYYPMQLDLEYVRSGWDNYEFDINEVEEGPVFAMCMAGAHDQATMAKWIQGLQETNPTLAQIPVVFRLAGSTRELQTSSAGLEEPPLPEDHQEEDDNLQRQQQGQS
As for B1, the binding result in test [1] and in test [2] was “binds” throughout.

B2: NDUFAF1, Q9Y375 25-327 (protein)
chain: YPFLGIRFAEYSSSLQKPVASPGKASSQRKTEGDLQGDHQKEVALDITSSEEKPDVSFDKAIRDEAIYHFRLLKDEIVDHWRGPEGHPLHEVLLEQAKVVWQFRGKEDLDKWTVTSDKTIGGRSEVFLKMGKNNQSALLYGTLSSEAPQDGESTRSGYCAMISRIPRGAFERKMSYDWSQFNTLYLRVRGDGRPWMVNIKEDTDFFQRTNQMYSYFMFTRGGPYWQEVKIPFSKFFFSNRGRIRDVQHELPLDKISSIGFTLADKVDGPFFLEIDFIGVFTDPAHTEEFAYENSPELNPRLFK
For B2, in test [3], the binding result is “binds”.

B3: MTG2 (protein, UniProt Q9H4K7 1-406)
chain: MAPARCFSARLRTVFQGVGHWALSTWAGLKPSRLLPQRASPRLLSVGRADLAKHQELPGKKLLSEKKLKRYFVDYRRVLVCGGNGGAGASCFHSEPRKEFGGPDGGDGGNGGHVILRVDQQVKSLSSVLSRYQGFSGEDGGSKNCFGRSGAVLYIRVPVGTLVKEGGRVVADLSCVGDEYIAALGGAGGKGNRFFLANNNRAPVTCTPGQPGQQRVLHLELKTVAHAGMVGFPNAGKSSLLRAISNARPAVASYPFTTLKPHVGIVHYEGHLQIAVADIPGIIRGAHQNRGLGSAFLRHIERCRFLLFVVDLSQPEPWTQVDDLKYELEMYEKGLSARPHAIVANKIDLPEAQANLSQLRDHLGQEVIVLSALTGENLEQLLLHLKVLYDAYAEAELGQGRQPLRW
As to B3, in test [4], the binding result was “binds”.

B4: PMPCB (protein, UniProt O75439 44-489)
chain: STQAATQVVLNVPETRVTCLESGLRVASEDSGLSTCTVGLWIDAGSRYENEKNNGTAHFLEHMAFKGTKKRSQLDLELEIENMGAHLNAYTSREQTVYYAKAFSKDLPRAVEILADIIQNSTLGEAEIERERGVILREMQEVETNLQEVVFDYLHATAYQNTALGRTILGPTENIKSISRKDLVDYITTHYKGPRIVLAAAGGVSHDELLDLAKFHFGDSLCTHKGEIPALPPCKFTGSEIRVRDDKMPLAHLAIAVEAVGWAHPDTICLMVANTLIGNWDRSFGGGMNLSSKLAQLTCHGNLCHSFQSFNTSYTDTGLWGLYMVCESSTVADMLHVVQKEWMRLCTSVTESEVARARNLLKTNMLLQLDGSTPICEDIGRQMLCYNRRIPIPELEARIDAVNAETIREVCTKYIYNRSPAIAAVGPIKQLPDFKQIRSNMCWLRD
As to B4, in test [5], the binding entry was “binds”.
